PubChem BioAssay AID1224830, NIAID | 2016
Shown is one part, drawn at random, of about 18,000 reagents tested. About 2,900 of all reagents (16%) count as active. 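Calls are made per well; low scores hint the gene aids the LPS response, high scores that it dampens it.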 Entries without a mark were called inactive. Repeated entries: four replicate wells of each siRNA pool.

- Assay: 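Genes whose knock-down alters the TNF-alpha reporter response to LPS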 (primary screen)
- System: human THP-1 monocytic leukaemia cells, TNF dual-luciferase reporter clone, PMA-differentiated to macrophage-like cells
- Reagents: siRNA pool against human genes, 50 nM
- Duration: LPS for 4 h, given about 3 days after siRNA transfection
- Conditions: bacterial LPS (TLR4 ligand), 10 ng/ml
- Measured: 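TNF firefly reporter luminescence divided by renilla, normalised to the plate median, then turned into a robust z-score for each replicate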
- Reading the numbers: TNF reporter robust z-score: higher = stronger TNF reporter response to LPS
- Active means: 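Each well counts as active if its z-score is over 2.8 or under -1.5; controls are left without a call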

no.	gene	TNF reporter robust z-score
1	APP	-0.69
2	APP	-1.26
3	APP	3.51 (active)
4	APP	-0.48
5	TNMD	-0.76
6	TNMD	-0.92
7	TNMD	-0.94
8	TNMD	-1.03
9	PPP6R2	-0.45
10	PPP6R2	-0.34
11	PPP6R2	0.8
12	PPP6R2	0.35
13	SLAMF9	-0.18
14	SLAMF9	-0.04
15	SLAMF9	0.37
16	SLAMF9	0.33
17	OR52J3	-0.97
18	OR52J3	0.31
19	OR52J3	-1.08
20	OR52J3	-0.55
21	CFAP70	-0.8
22	CFAP70	-0.65
23	CFAP70	0.81
24	CFAP70	0.92
25	COX20	-0.07
26	COX20	-0.82
27	COX20	-1.13
28	COX20	0.52
29	KCNK10	-0.33
30	KCNK10	0.15
31	KCNK10	-0.25
32	KCNK10	0.25
33	BLOC1S6	0.15
34	BLOC1S6	-0.05
35	BLOC1S6	-0.18
36	BLOC1S6	-0.19
37	OR52W1	0.43
38	OR52W1	0.65
39	OR52W1	0.63
40	OR52W1	-0.33
41	PTPRO	0.1
42	PTPRO	-0.18
43	PTPRO	1.29
44	PTPRO	-0.26
45	MCPH1	-0.72
46	MCPH1	0.06
47	MCPH1	-0.47
48	MCPH1	-0.5
49	JUNB	0.9
50	JUNB	3.59 (active)
51	JUNB	1.46
52	JUNB	3.3 (active)
53	SLC26A9	-1.22
54	SLC26A9	-1.83 (active)
55	SLC26A9	-1.66 (active)
56	SLC26A9	-1.36
57	PIBF1	0.53
58	PIBF1	0.88
59	PIBF1	0.72
60	PIBF1	0.45
61	CD14	-1.54 (active)
62	CD14	-1.32
63	CD14	-1.73 (active)
64	CD14	-1.52 (active)
65	CSMD2	-0.38
66	CSMD2	0.01
67	CSMD2	-0.24
68	CSMD2	0.49
69	TRIM42	3.65 (active)
70	TRIM42	1.33
71	TRIM42	-1.35
72	TRIM42	1.88
73	STPG3	0.01
74	STPG3	0.45
75	STPG3	-0.23
76	STPG3	0.44
77	TMCO6	0.75
78	TMCO6	0.52
79	TMCO6	0.39
80	TMCO6	1.2
81	HABP4	-0.93
82	HABP4	0.61
83	HABP4	-0.16
84	HABP4	-0.23
85	COMMD8	-0.81
86	COMMD8	0.13
87	COMMD8	-0.38
88	COMMD8	-0.15
89	YIF1A	-1.21
90	YIF1A	-0.81
91	YIF1A	-0.6
92	YIF1A	-0.36
93	PFKL	0.69
94	PFKL	1.51
95	PFKL	3.41 (active)
96	PFKL	0.89
97	SEC24B	2.6
98	SEC24B	1.06
99	SEC24B	0.13
100	SEC24B	1.3
101	LTF	-0.58
102	LTF	0.66
103	LTF	-0.05
104	LTF	-0.06
105	OTX2	-0.89
106	OTX2	-0.7
107	OTX2	0.16
108	OTX2	-0.75
109	SLC17A8	-2.03 (active)
110	SLC17A8	-0.86
111	SLC17A8	-0.78
112	SLC17A8	-0.82
